Our source for the binding values is PMC7077553.

These are yes or no findings as the source states them, for the method shown. In cells and extracts the contact can be indirect. Some results given as binding are weak or reduced against the parent protein; the word gives no strength.

Assay [1] concerns the target T1, Cyclin G2 (CCNG2) in HK-2 cells (not stated (in human HK-2 cells)) (UniProt Q16589).
T1 sequence: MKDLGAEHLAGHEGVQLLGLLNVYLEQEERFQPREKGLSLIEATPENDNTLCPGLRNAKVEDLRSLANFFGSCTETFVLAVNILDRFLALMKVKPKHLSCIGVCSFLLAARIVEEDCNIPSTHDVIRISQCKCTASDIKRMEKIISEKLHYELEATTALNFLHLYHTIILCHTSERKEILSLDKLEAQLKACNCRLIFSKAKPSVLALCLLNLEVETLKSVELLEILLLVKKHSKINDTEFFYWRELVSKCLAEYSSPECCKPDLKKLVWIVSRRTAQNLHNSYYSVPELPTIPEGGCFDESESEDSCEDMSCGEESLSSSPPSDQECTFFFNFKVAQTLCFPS
The assay is described as follows: co-IP; coimmunoprecipitation in HK-2 cells; which protein was precipitated is not told.

The target in assay [2] is T1, Cyclin G2 (CCNG2) in HK-2 cells (not stated (in human HK-2 cells)). The assay is described as follows: proximity ligation; Duolink in situ PLA in fixed, permeabilised HK-2 cells with primary antibodies against Dpr1, cyclin G2 or CK1; Dpr1-CK1 also in the context of cyclin G2 overexpression.

B1: Dapper1 (Dpr1/DACT1) in HK-2 cells (protein, UniProt Q9NYF0 1-836)
chain: MKPSPAGTAKELEPPAPARGEQRTAEPEGRWREKGEADTERQRTRERQEATLAGLAELEYLRQRQELLVRGALRGAGGAGAAAPRAGELLGEAAQRSRLEEKFLEENILLLRKQLNCLRRRDAGLLNQLQELDKQISDLRLDVEKTSEEHLETDSRPSSGFYELSDGASGSLSNSSNSVFSECLSSCHSSTCFCSPLEATLSLSDGCPKSADLIGLLEYKEGHCEDQASGAVCRSLSTPQFNSLDVIADVNPKYQCDLVSKNGNDVYRYPSPLHAVAVQSPMFLLCLTGNPLREEDRLGNHASDICGGSELDAVKTDSSLPSPSSLWSASHPSSSKKMDGYILSLVQKKTHPVRTNKPRTSVNADPTKGLLRNGSVCVRAPGGVSQGNSVNLKNSKQACLPSGGIPSLNNGTFSPPKQWSKESKAEQAESKRVPLPEGCPSGAASDLQSKHLPKTAKPASQEHARCSAIGTGESPKESAQLSGASPKESPSRGPAPPQENKVVQPLKKMSQKNSLQGVPPATPPLLSTAFPVEERPALDFKSEGSSQSLEEAHLVKAQFIPGQQPSVRLHRGHRNMGVVKNSSLKHRGPALQGLENGLPTVREKTRAGSKKCRFPDDLDTNKKLKKASSKGRKSGGGPEAGVPGRPAGGGHRAGSRAHGHGREAVVAKPKHKRTDYRRWKSSAEISYEEALRRARRGRRENVGLYPAPVPLPYASPYAYVASDSEYSAECESLFHSTVVDTSEDEQSNYTTNCFGDSESSVSEGEFVGESTTTSDSEESGGLIWSQFVQTLPIQTVTAPDLHNHPAKTFVKIKASHNLKKKILRFRSGSLKLMTTV
Take B1: the binding entry in assay [1] and in assay [2] was “binds” throughout.
